Our source for the binding values is publication PMC6775688.

Protein sequences, listed by entry. Tags and fused reporters are not part of them. Residues count along the entry.
UniProt P25311, residues 21-298: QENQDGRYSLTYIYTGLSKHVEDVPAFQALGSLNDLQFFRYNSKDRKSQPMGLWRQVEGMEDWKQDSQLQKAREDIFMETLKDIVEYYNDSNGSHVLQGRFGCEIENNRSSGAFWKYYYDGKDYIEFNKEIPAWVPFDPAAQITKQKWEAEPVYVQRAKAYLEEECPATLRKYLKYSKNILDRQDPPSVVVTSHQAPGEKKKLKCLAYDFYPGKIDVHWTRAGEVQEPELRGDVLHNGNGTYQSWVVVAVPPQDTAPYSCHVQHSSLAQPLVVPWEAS
UniProt P21333: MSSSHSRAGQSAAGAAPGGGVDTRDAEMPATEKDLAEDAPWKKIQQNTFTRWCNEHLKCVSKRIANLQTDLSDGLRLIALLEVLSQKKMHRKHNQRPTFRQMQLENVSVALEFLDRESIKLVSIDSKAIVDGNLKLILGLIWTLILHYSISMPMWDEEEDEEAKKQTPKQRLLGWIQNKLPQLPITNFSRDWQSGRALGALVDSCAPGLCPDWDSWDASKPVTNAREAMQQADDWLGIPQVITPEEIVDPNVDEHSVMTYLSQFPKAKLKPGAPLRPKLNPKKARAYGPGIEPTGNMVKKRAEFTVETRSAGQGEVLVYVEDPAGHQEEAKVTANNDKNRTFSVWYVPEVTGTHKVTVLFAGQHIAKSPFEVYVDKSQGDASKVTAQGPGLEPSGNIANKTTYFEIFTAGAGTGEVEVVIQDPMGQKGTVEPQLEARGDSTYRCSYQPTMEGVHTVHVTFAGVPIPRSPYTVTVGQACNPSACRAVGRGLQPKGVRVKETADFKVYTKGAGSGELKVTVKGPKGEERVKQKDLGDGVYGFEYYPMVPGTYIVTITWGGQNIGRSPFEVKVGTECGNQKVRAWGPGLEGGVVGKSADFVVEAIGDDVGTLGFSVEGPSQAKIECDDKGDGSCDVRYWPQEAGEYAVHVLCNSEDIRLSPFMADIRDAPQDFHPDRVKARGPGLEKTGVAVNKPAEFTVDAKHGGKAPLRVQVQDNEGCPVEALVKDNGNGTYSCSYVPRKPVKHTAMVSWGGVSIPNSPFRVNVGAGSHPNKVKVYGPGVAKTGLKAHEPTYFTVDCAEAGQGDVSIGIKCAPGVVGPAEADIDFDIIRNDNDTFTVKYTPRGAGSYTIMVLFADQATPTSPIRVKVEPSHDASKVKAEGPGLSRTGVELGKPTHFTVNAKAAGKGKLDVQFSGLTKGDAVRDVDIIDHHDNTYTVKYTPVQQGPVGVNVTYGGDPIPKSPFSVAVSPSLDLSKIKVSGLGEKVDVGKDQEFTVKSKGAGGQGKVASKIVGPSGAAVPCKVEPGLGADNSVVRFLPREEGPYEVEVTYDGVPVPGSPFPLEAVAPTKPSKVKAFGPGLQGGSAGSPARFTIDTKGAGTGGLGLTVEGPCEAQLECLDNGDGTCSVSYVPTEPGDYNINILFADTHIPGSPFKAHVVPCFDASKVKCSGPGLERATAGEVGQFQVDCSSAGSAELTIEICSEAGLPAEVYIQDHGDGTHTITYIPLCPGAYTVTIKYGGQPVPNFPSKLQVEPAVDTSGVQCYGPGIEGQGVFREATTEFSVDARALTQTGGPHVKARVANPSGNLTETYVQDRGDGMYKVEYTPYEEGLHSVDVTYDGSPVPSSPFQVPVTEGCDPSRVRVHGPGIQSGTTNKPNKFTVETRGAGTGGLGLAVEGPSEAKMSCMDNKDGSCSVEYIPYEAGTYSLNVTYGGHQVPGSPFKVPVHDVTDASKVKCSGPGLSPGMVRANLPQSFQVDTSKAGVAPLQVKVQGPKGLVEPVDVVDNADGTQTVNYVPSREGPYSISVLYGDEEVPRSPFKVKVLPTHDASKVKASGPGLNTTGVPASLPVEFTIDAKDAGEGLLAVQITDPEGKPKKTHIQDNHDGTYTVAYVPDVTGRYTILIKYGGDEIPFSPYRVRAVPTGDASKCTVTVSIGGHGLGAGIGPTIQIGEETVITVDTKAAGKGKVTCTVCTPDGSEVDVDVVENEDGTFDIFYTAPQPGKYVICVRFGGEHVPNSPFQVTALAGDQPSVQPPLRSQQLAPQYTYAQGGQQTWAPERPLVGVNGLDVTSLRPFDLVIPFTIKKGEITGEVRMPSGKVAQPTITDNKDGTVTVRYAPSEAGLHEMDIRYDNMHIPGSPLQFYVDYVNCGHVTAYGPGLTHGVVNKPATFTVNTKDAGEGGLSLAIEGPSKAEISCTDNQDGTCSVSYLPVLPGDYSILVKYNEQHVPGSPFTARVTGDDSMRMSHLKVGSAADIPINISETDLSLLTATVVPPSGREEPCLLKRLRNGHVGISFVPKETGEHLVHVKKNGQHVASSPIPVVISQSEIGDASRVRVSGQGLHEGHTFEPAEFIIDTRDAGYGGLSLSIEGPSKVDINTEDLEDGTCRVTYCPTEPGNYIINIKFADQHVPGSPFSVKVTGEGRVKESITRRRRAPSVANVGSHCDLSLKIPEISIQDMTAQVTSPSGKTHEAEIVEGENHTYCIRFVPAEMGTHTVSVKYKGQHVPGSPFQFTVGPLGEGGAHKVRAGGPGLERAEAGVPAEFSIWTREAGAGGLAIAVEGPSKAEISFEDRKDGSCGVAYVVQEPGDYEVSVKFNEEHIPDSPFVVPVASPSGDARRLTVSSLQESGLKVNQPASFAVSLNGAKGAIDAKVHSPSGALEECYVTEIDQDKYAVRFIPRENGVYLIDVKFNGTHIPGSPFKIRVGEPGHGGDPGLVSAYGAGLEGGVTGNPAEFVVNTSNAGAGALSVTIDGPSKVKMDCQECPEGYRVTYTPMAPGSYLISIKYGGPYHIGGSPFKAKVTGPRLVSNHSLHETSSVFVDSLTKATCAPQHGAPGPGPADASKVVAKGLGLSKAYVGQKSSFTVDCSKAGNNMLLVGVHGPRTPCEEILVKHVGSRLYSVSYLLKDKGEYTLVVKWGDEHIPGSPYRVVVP

The target in the test is Zinc-α2-glycoprotein 1 (AZGP1) (human (endogenous in HCT116 and SW480)) (UniProt P25311). Nature of the test: affinity purification with mass spectrometry; AZGP1 interactors purified by immunoaffinity purification, gel silver stained, resolved by LC-MS/MS; cells not given.

No constants are given. Whether binding was seen depends on the method and setting. In cells and extracts the contact can be indirect. Here binding means that the protein was enriched with, or labelled near, the bait; the list need not be complete.

Turning to “filamin A (FLNA) (from UniProt P21333 1-2647)”, the binding entry is given as “binds”.
